{"source": "patent US20250333523A1", "about": "(Alector, published 2025)", "binders": {"B1": {"name": "anti-IL18BP antibody BP-06 (antibody, human IgG1, V domains shown)", "VH": "QIQLQQSGPELVKPGASVKISCKASGYTFTDYYLNWVKQTPGQGLEWIGWIYPGSGNTKYTEKFKDKASLTVDTSSNTAYMQLSSLTSDDTAVYFCARRGVAWFAYWGQGTLVTVSA", "VL": "DIKMTQSPSSIYASLGERVTITCKASQDINSYLSWFQQKPGKSPKTLIHRANRLVDGVPSRFSGSGSGQDYSLTISSLEYEDMGIYYCLQHDDFPPTFGAGTNLELK"}, "B2": {"name": "anti-IL18BP antibody BP-16 (antibody, human IgG1, V domains shown)", "VH": "QVQLVQSGAEVKKPGASVKVSCKASGYTFTTYDINWVRQAPGQGLEWMGIIGSYGGATSYAQKFQGRVTMTRDTSTSTVYMELSSLRSEDTAVYYCATAEEELRFDYWGQGTLVTVSS", "VL": "DIQMTQSPSSLSASVGDRVTITCRASQSISSYLNWYQQKPGKAPKLLIYKASTLHNGVPSRFSGSGSGTDFTLTISNLQPEDFATYYCQQAISFPLTFGGGTKVEIK"}, "B3": {"name": "anti-IL-18BP antibody variant BP-04.03 (antibody, V domains shown)", "VH": "QVQLVQSGAEVKKPGASVKVSCKASGYTFTDYDMHWVRQAPGQGLEWMGIISTYYGDVSYAQKFQGRVTMTRDKSTSTVYMELSSLRSENTAVYYCARSGTYYYGTREQHALDYWGQGTLVTVSS", "VL": "DIQMTQSPSSVSASVGDRVTITCRASDNVYSNLAWYQQKPGKAPKLLIYGAISLADGVPSRFSGSGSGTDFTLTISSLQPEDFATYYCQHFWGNPYTFGQGTKLEIK"}, "B4": {"name": "anti-IL-18BP antibody variant BP-04.07 (antibody, V domains shown)", "VH": "B3 VH with D57V, F64K, N90D, Y103N, Q109S", "VL": "B3 VL"}, "B5": {"name": "anti-IL-18BP antibody variant BP-04.05 (antibody, V domains shown)", "VH": "B3 VH with D57V, F64K, N90D, Q109S, L112F", "VL": "B3 VL"}, "B6": {"name": "anti-IL18BP antibody BP-07 (antibody, human IgG1, V domains shown)", "VH": "EVQLQQSGPELVKPGASVKISCRASGFTITDYNMDWVRQSHGKSLEWIGNINLNNGGSIYNQKFKGKATLTIDKSSSTAYMELRSLTSEDTAVYYCARSDTTVVASRYYAMDYWGQGTSVTVSS", "VL": "DIVLTQSPASLAMSLGKRATISCRASESVSIIGTNLIHWYQQKPGQPPKLLIYHASNLETGVPVRFSGSGSRTDFTLTIDPVEEDDVAIYYCLQSRKIPPTFGGGTKLEIK"}, "B7": {"name": "anti-IL18BP antibody BP-08 (antibody, human IgG1, V domains shown)", "VH": "QVQLQQPGAELVKPGASVKLSCKVSGYTFTSYWMHWVKQRPGQGLEWIGMIDPNSDSSRYNEKFKNRATLTADKSSSTAFMQFSSLTSEDSAVYYCARSRLGQDYWGQGTTLTVSS", "VL": "DIVMTQSHKFMSTSVGDRVSITCKASQDVSTAVAWYQQKPGQSPKLLIYWASTRHTGVPDRFTGSESGTDYTLIISSVQAEDLALYYCQQHFSTPYTFGGGTKLEIK"}, "B8": {"name": "anti-IL18BP antibody BP-11 (antibody, human IgG1, V domains shown)", "VH": "QVQLQQSGAELAKPGASVKMSCKASGYTFTNYWMHWVKQRPGQGLEWIGHIDPSTGYTEYNQKFKDKATLTADKSSSTAYMQLSSLTSEDSAVYYCARGLGGLFGYWGQGTLVTVSA", "VL": "DIQMTQSPSSLSASLGGKVTITCKASQDINKFIAWYQHKPGKGPRLLIHHTSTLMPGIPSRFSGSGSGREYSFSISNLEPEDIATYYCLQYDNLLWTFGGGTKLEIR"}, "B9": {"name": "anti-IL18BP antibody BP-04 (antibody, V domains shown)", "VH": "HVHLHQSGAELVRPGVSVKISCRGSGYTFTDYDVHWVKQSHAKSLEWIGVISTYYGDVGYNQEFKGKATMTLDKSSSTSYLELARLTSEDSAIYYCARSGTYYYGTRESHALDYWGQGTSVTVSS", "VL": "DIQMTQSPASLSVSVGETVTITCRTSDNVYSNLAWYQQKQGKSPQLLVYGAINLADGVPSRFSGSGSDTQYSLKINNLQSEDFGSYYCQHFWGNPYTFGGGTKLEIK", "notes": "also called BP-04 (hybridoma); BP-04 (parental)"}, "B10": {"name": "anti-IL18BP antibody BP-03 (antibody, human IgG1, V domains shown)", "VH": "EVQLQQSGPELVKPGASVKIPCKASGYTFTDYNMDWVKQSHGKSLEWIGNINTDNGGTVYNQKFKGKATLTVDQSSSTAYMELRSLTSEDTAVYYCARSDTTVVASRYYAMDYWGQGTSVTVSS", "VL": "B6 VL with V64A"}, "B11": {"name": "anti-IL18BP antibody BP-09 (antibody, human IgG1, V domains shown)", "VH": "QVQLQQSGAELVRPGASVTLSCKASGYRFTDYAMHWVKQTPVHGLQWIGIIDPETGDTAFNQKFKGKATLTADKSSSTAYMELSSLTSEDSAVYYCTRPRGAMDYWGQGTSVTVSS", "VL": "DIVMTQSHKFMSTSGGDRVSITCKASQDVGTAVAWYQQKPGISPKLLIYWASTRHTGVPDRFTGSGSGTDFTLAISNVQSEDLADYFCQQYSSHPYTFGGGTKLEIK"}, "B12": {"name": "anti-IL18BP antibody BP-13 (antibody, human IgG1, V domains shown)", "VH": "QVQLQQSGAELVRPGASVTLSCKASGYTFTDYEMHWVKQTPVHGLEWIGPIDPETGDTAYNQKFKGQATLTADKSSSTAYMELSSLTSEDSAVYYCTRGSRGVFDYWGQGTALTVSS", "VL": "B11 VL with G15V, I42Q, T53A, A74T, Q90H, S92F, S93N, H94F, Y96R, K107T"}, "B13": {"name": "anti-IL18BP antibody BP-01 (antibody, human IgG1, V domains shown)", "VH": "QVQLQQSGPEVVRPGVSVKISCKGSGYTFTDFAMYWVKQSHAKSLEWIGVISTDNGDTSYNQKFKGKATMTVDKSSSTAYMELDRLTSEDSAIYYCARSRGPFDYWGQGTALTVSS", "VL": "B11 VL with M11K, G15V, S20N, I42Q, T56I, A74T, S76R, Q90R, H94Y, Y96W"}, "B14": {"name": "anti-IL18BP antibody BP-12 (antibody, human IgG1, V domains shown)", "VH": "EVQLQQSGPELVKPGASVKMSCKTSGYTFTEYTMHWVKQSHGKSLEWIGGVNPNNGGTTYNQKFRDKATLTVDKSSSTTYMEVRTLTSDDSAVYYCAPLWRVFDYWGQGTTLTVSS", "VL": "DIVMTQSHKFMSSSVGDRVSITCKASQDVGTAVAWYQQKPGQSPKLLIYWASTRHTGVPDRFTGSGSGTDFTLTISNVQSEDLADYFCHQFSRYPLTFGAGTKLELK"}, "B15": {"name": "anti-IL18BP antibody BP-10 (antibody, human IgG1, V domains shown)", "VH": "QVQLQQPGAERVEPGASVRLSCKTSGYTFTNYWMHWVKQRPGQGLEWIGMIHPESGSTNNNEKFKSKATLTVDKSSSTAYMQLSSLTSEDSAVYYCARWDRGYFDYWGQGTTLTVSS", "VL": "B7 VL with S30R, T31S, A32T, A34G, K39R, A51T, E66G, I74T, F92Y, K103T"}}, "note": "Substitutions are numbered along the chain they refer to. No constants are given. Whether binding was seen depends on the method and setting. Some results given as binding are weak or reduced against the parent protein; the word gives no strength.", "data": [{"biological_target": "His/Avi-CynoIL18BP (recombinant cynomolgus IL-18BP with His and Avi tags) (cynomolgus monkey)", "assay": "ELISA, coated IL-18BP", "values": [{"binder": "B1", "binding": "binds"}]}, {"biological_target": "His/Avi-CynoIL18BP (recombinant cynomolgus IL-18BP with His and Avi tags) (cynomolgus monkey)", "assay": "SPR, qualitative; cross-reactive; † = Human IL-18BP binding > mouse and cynomolgus", "values": [{"binder": "B2", "binding": "binds"}]}, {"biological_target": "His/Avi-CynoIL18BP (recombinant cynomolgus IL-18BP with His and Avi tags) (cynomolgus monkey)", "assay": "SPR Biacore T200", "values": [{"binder": "B3", "binding": "binds"}, {"binder": "B4", "binding": "binds"}, {"binder": "B5", "binding": "binds"}]}, {"biological_target": "His/Avi-CynoIL18BP (recombinant cynomolgus IL-18BP with His and Avi tags) (cynomolgus monkey)", "assay": "SPR, qualitative; cross-reactive; ** = Cynomolgus IL-18BP binding < human and mouse", "values": [{"binder": "B6", "binding": "binds"}]}, {"biological_target": "His/Avi-CynoIL18BP (recombinant cynomolgus IL-18BP with His and Avi tags) (cynomolgus monkey)", "assay": "SPR, qualitative; column: Human and cynomolgus only cross-reactive", "values": [{"binder": "B7", "binding": "binds"}, {"binder": "B1", "binding": "binds"}]}, {"biological_target": "His/Avi-CynoIL18BP (recombinant cynomolgus IL-18BP with His and Avi tags) (cynomolgus monkey)", "assay": "SPR, qualitative; column: Human, cynomolgus, and mouse cross-reactive", "values": [{"binder": "B8", "binding": "binds"}, {"binder": "B9", "binding": "binds"}, {"binder": "B10", "binding": "binds"}]}, {"biological_target": "His/Avi-CynoIL18BP (recombinant cynomolgus IL-18BP with His and Avi tags) (cynomolgus monkey)", "assay": "SPR, qualitative", "values": [{"binder": "B8", "binding": "binds"}, {"binder": "B2", "binding": "binds"}, {"binder": "B9", "binding": "binds"}, {"binder": "B11", "binding": "binds"}, {"binder": "B12", "binding": "binds"}, {"binder": "B13", "binding": "binds"}, {"binder": "B14", "binding": "binds"}, {"binder": "B15", "binding": "binds"}, {"binder": "B7", "binding": "binds"}, {"binder": "B10", "binding": "binds"}, {"binder": "B6", "binding": "binds"}, {"binder": "B1", "binding": "binds"}]}, {"biological_target": "His/Avi-CynoIL18BP (recombinant cynomolgus IL-18BP with His and Avi tags) (cynomolgus monkey)", "assay": "SPR, qualitative; cross-reactive; * = Mouse IL-18BP binding < human and cynomolgus", "values": [{"binder": "B11", "binding": "binds"}, {"binder": "B12", "binding": "binds"}, {"binder": "B13", "binding": "binds"}, {"binder": "B14", "binding": "binds"}, {"binder": "B15", "binding": "binds"}]}, {"biological_target": "His/Avi-CynoIL18BP (recombinant cynomolgus IL-18BP with His and Avi tags) (cynomolgus monkey)", "assay": "SPR Carterra LSA, IgG immobilized; HB = heterogeneous binding, doesn't fit to 1:1 binding model", "values": [{"binder": "B6", "binding": "binds"}, {"binder": "B1", "binding": "binds"}]}]}
